Data: the supplement of paper PMC4962491
Structures can show the parent of a compound that is named as a salt. ± gives the standard deviation of the averaged measurements. The entries are a selection whose mix differs from that of the whole data set. Repeats in this data set agree poorly, so a single value says little.

System: FaDu
Test: mitochondrial oxygen consumption rate normalised to cell number, Z score over the library; higher = higher oxygen consumption (negative = OCR reduction)
Conditions: treatment time 24 h, assay medium: 5 mM galactose, 5 mM pyruvate, 4 mM glutamine
Experimental: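 Primary screen: FaDu cells were incubated 24 h with Pharmakon 1600 / TDI oncology set compounds at 2 or 10 uM. Mitochondrial-specific OCR (basal minus 2 uM antimycin A) was measured on a Seahorse XF96 in assay medium with 5 mM galactose, 5 mM pyruvate and 4 mM glutamine, then corrected for Hoechst cell number and expressed as a Z score […]. Compounds that cut cell number by >66% were excluded. Two repeats.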

Structure (SMILES)	mitochondrial oxygen consumption rate normalised (2 µM)	mitochondrial oxygen consumption rate normalised (10 µM)
Nc1nc(N)nc(NC2CC2)n1	-0.138 ± 0.52	
CN1[C@@H]2CC[C@H]1C[C@@H](OC(=O)[C@H](CO)c1ccccc1)C2	-0.902 ± 0.12	
COc1ccc2c(c1)[C@]13CCCC[C@@H]1[C@H](C2)N(C)CC3	0.183 ± 1.4	
C=C[C@H]1CN2CC[C@H]1C[C@H]2[C@H](O)c1ccnc2ccccc12	-0.108 ± 0.25	
C=CC[C@]1(O)CC[C@H]2[C@@H]3CCC4=CC(=O)CCC4=C3C=C[C@@]21C	-0.442 ± 0.19	
C1CCc2nnnn2CC1	-0.656 ± 0.029	-0.625 ± 0.34
CC(Cc1ccc(O)cc1)NCC(O)c1cc(O)cc(O)c1 (stereo unspecified)	1.48 ± 0.59	
C=C[C@H]1CN2CC[C@H]1C[C@@H]2[C@@H](O)c1ccnc2ccccc12	-0.0916 ± 0.46	
C=CCN=C=S	0.451 ± 0.0065	
CC(C)CC(N(C)C)C1(c2ccc(Cl)cc2)CCC1 (stereo unspecified)	0.42 ± 1.2	
O=C([O-])c1ccccc1-c1c2cc(Br)c(=O)cc-2oc2[c]([Hg+])c([O-])c(Br)cc12.[Na+].[Na+].[OH-]	1.13 ± 0.65	
COP(=S)(OC)Oc1ccc(SC)c(C)c1	0.484 ± 0.49	
O=c1[nH]c2ccccc2n1CCCN1CCC(n2c(=O)[nH]c3cc(Cl)ccc32)CC1	0.1 ± 0.46	-0.0948 ± 0.24
C#C[C@]1(O)CC[C@H]2[C@@H]3CCC4=CC(=O)CC[C@]4(C)[C@H]3CC[C@@]21C	-1.02 ± 0.4	
CC(C)[N+](C)(CCC(C(N)=O)(c1ccccc1)c1ccccc1)C(C)C	-1.5 ± 0.83	
O=C([O-])Cc1ccccc1.[Na+]	0.337 ± 0.27	
Cn1c(CCCC(=O)O)nc2cc(N(CCCl)CCCl)ccc21 [Bendamustine HCl]	0.48 ± 0.28	
CN[C@@H]1[C@@H](O)[C@@H](O[C@@H]2[C@@H](O)[C@H](O[C@H]3O[C@H](CN)CC[C@H]3N)[C@@H](N)C[C@H]2N)OC[C@]1(C)O.CN[C@@H]1[C@@H](O)[C@@H](O[C@@H]2[C@@H](O)[C@H](O[C@H]3O[C@H]([C@@H](C)N)CC[C@H]3N)[C@@H](N)C[C@H]2N)OC[C@]1(C)O.CN[C@@H]1[C@@H](O)[C@@H](O[C@@H]2[C@@H](O)[C@H](O[C@H]3O[C@H]([C@@H](C)NC)CC[C@H]3N)[C@@H](N)C[C@H]2N)OC[C@]1(C)O	-0.239 ± 0.74	
CN1CCN(C(=O)O[C@H]2c3nccnc3C(=O)N2c2ccc(Cl)cn2)CC1	-0.274 ± 1	-0.823 ± 0.029
NC(=O)c1cc([N+](=O)[O-])cc([N+](=O)[O-])c1	-1.22 ± 1.4	
O=C1CC[C@@]2(O)[C@H]3Cc4ccc(O)c5c4[C@@]2(CCN3CC2CC2)[C@H]1O5	0.973 ± 1.2	
NCC(CC(=O)O)c1ccc(Cl)cc1 (stereo unspecified)	0.559 ± 0.74	
CCOC(=O)CC(SP(=S)(OC)OC)C(=O)OCC (stereo unspecified)	1.02 ± 1.3	
CC(N)Cc1ccc(O)cc1 (stereo unspecified)	-0.132 ± 0.17	
CC(NC(C)(C)C)C(=O)c1cccc(Cl)c1 (stereo unspecified)	1.28 ± 0.36	

Structure (SMILES)	mitochondrial oxygen consumption rate normalised (2 µM)	mitochondrial oxygen consumption rate normalised (10 µM)
O=C(O)CCCO	0.441 ± 0.14	
NCc1cccnc1	-0.0792 ± 0.3	
C=C/C=C\CC1=C(C)[C@@H](OC(=O)[C@@H]2[C@@H](/C=C(\C)C(=O)OC)C2(C)C)CC1=O.C=C/C=C\CC1=C(C)[C@@H](OC(=O)[C@@H]2[C@@H](C=C(C)C)C2(C)C)CC1=O	-0.533 ± 1.1	
CN1[C@@H]2C[C@@H](OC(=O)[C@H](CO)c3ccccc3)C[C@H]1[C@@H]1O[C@@H]12	0.405 ± 0.51	
O=[N+]([O-])C(Br)(CO)CO	-0.891 ± 0.095	
CN1C[C@H](C(=O)N[C@]2(C)O[C@@]3(O)[C@@H]4CCCN4C(=O)[C@H](Cc4ccccc4)N3C2=O)C=C2c3cccc4[nH]cc(c34)C[C@H]21	0.0928 ± 0.47	
[O-][n+]1ccccc1[S-].[O-][n+]1ccccc1[S-].[Zn+2]	0.46 ± 0.59	
C=CCN1CC[C@]23c4c5ccc(O)c4O[C@H]2C(=O)CC[C@@]3(O)[C@H]1C5	0.369 ± 2	
O=c1n(Cl)c(=O)n(Cl)c(=O)n1Cl	0.743 ± 0.18	
COP(=O)(OC)C(O)C(Cl)(Cl)Cl (stereo unspecified)	0.185 ± 0.23	
COP(=O)(OC)OC=C(Cl)Cl	-0.149 ± 0.52	
S=C=NCc1ccccc1	0.712 ± 0.78	-4.7 ± 0.66
C[C@]12CCC(=O)C=C1C=C[C@@H]1[C@@H]2CC[C@@]2(C)[C@H]1CC[C@@]2(O)CCC(=O)O	-0.167 ± 0.077	
Cc1cccc(C)c1NC(=O)CN1CCCC1=O	0.485 ± 1.2	
CC[C@@H](C(=O)[C@@H](C)[C@@H](O)[C@H](C)[C@@H]1O[C@@H]([C@@H](CC)C(=O)O)CC[C@@H]1C)[C@H]1O[C@]2(C=C[C@@H](O)[C@]3(CC[C@@](C)([C@H]4CC[C@](O)(CC)[C@H](C)O4)O3)O2)[C@H](C)C[C@@H]1C	-0.953 ± 0.61	
NCC(O)c1ccc(O)cc1 (stereo unspecified)	-1.19 ± 0.1	
Cc1ccc(/N=C/N(C)/C=N/c2ccc(C)cc2C)c(C)c1	-0.22 ± 0.011	
O=c1c2ccccc2[se]n1-c1ccccc1	-0.849 ± 0.56	
c1ccc2c(c1)Nc1ccccc1S2	1.1 ± 0.42	
C[C@]12CC[C@H]3[C@@H](CCC4=CC(=O)CC[C@@]43C)[C@@H]1CC[C@@H]2O	0.59 ± 0.5	
C[C@]12CC[C@@H]3c4ccc(OC(=O)N(CCCl)CCCl)cc4CC[C@H]3[C@@H]1CC[C@@H]2OP(=O)(O)O [Estramustine phosphate]	1.09 ± 0.15	
CC[C@@H](CO)NC(=O)[C@@H]1C=C2c3cccc4c3c(cn4C)C[C@H]2N(C)C1	-0.207 ± 0.096	
COc1cc2c(c(OC)c1OC)-c1ccc(OC)c(=O)cc1[C@@H](NC(C)=O)CC2	-0.775 ± 1.5	
C[C@]12CC[C@H](O)CC1=CC[C@@H]1[C@@H]2CC[C@]2(C)C(=O)CC[C@@H]12	0.104 ± 0.14	
CC1C=CC=CCCC=CC=CC=CC=CC(OC2OC(C)C(O)C(N)C2O)CC2OC(O)(CC(O)C(O)CCC(O)CC(O)CC(O)CC(=O)OC(C)C(C)C1O)CC(O)C2C(=O)O (stereo unspecified)	-0.0561 ± 0.16	

Structure (SMILES)	mitochondrial oxygen consumption rate normalised (2 µM)	mitochondrial oxygen consumption rate normalised (10 µM)
CC[N+]1(C)CCCC(OC(=O)C(O)(c2ccccc2)c2ccccc2)C1 (stereo unspecified)	-0.0709 ± 0.41	
c1ccc2c(c1)OCC(C1=NCCN1)O2 (stereo unspecified)	0.0604 ± 0.02	
CC(C)c1cccc(C(C)C)c1O	-0.258 ± 0.92	
Oc1ccc2c3c1O[C@H]1[C@@H](O)CC[C@@]4(O)[C@@H](C2)N(CC2CCC2)CC[C@]314	-0.644 ± 0.52	
CC(=O)O[C@H]1CC[C@@]2(C)C(=CC[C@@H]3[C@@H]2CC[C@]2(C)C(=O)CC[C@@H]32)C1	1.44 ± 0.05	
CN1C[C@H](CNC(=O)OCc2ccccc2)C[C@@H]2c3cccc4c3c(cn4C)C[C@H]21	0.0951 ± 0.8	
O=C(CCCN1CCC2(CC1)C(=O)NCN2c1ccccc1)c1ccc(F)cc1	0.165 ± 0.47	
O=[N+]([O-])O[C@H]1CO[C@H]2[C@@H]1OC[C@H]2O[N+](=O)[O-]	0.0524 ± 1.2	
NCC1(CC(=O)O)CCCCC1	-0.221 ± 1.3	
O=c1cccc2n1C[C@@H]1CNC[C@H]2C1	-0.274 ± 0.54	
CC(O)(CS(=O)(=O)c1ccc(F)cc1)C(=O)Nc1ccc(C#N)c(C(F)(F)F)c1 (stereo unspecified)	0.021 ± 0.069	
CCOC(=O)c1cncn1[C@H](C)c1ccccc1	0.285 ± 0.28	
CNC(=O)Oc1cccc2ccccc12	-0.435 ± 0.32	
COc1ccc2c(c1OC)C(=O)O[C@@H]2[C@H]1c2cc3c(cc2CCN1C)OCO3	-0.212 ± 0.36	
Cc1cc(C(C#N)c2ccc(Cl)cc2)c(Cl)cc1NC(=O)c1cc(I)cc(I)c1O (stereo unspecified)	1.1 ± 1.2	
O=C(O)c1nn(Cc2ccc(Cl)cc2Cl)c2ccccc12	0.46 ± 0.18	
C[C@@H]1C[C@@H]([C@H](O)CC2CC(=O)NC(=O)C2)C(=O)[C@@H](C)C1	0.681 ± 0.78	
CCC1(C2=NCCN2)Cc2ccccc2O1 (stereo unspecified)	0.0626 ± 0.083	
CC[C@@H](CO)NC(=O)[C@@H]1C=C2c3cccc4[nH]cc(c34)C[C@H]2N(C)C1	-0.807 ± 1.6	
CCCCOC(=O)c1ccccc1C(=O)OCCCC	-0.381 ± 0.093	
O=C1CCO1	0.271 ± 0.26	
CCC1(CC)C(=O)NC(=O)NC1=O	-0.704 ± 0.17	
CC([C@H](O)c1ccccc1)N(C)C (stereo partly specified)	-1.13 ± 0.32	
COc1ccc(OC)c(C(O)C(C)N)c1 (stereo unspecified)	-0.277 ± 0.036	
C1CN1c1nc(N2CC2)nc(N2CC2)n1 [Triethylenemelamine]	0.0985 ± 0.051	

Complete entries, quoted from the list.
CN1C[C@H](CNC(=O)OCc2ccccc2)C[C@@H]2c3cccc4c3c(cn4C)C[C@H]21 reads mitochondrial oxygen consumption rate normalised (2 µM): 0.0951 ± 0.8
CNC(=O)Oc1cccc2ccccc12 reads mitochondrial oxygen consumption rate normalised (2 µM): -0.435 ± 0.32
O=C(CCCN1CCC2(CC1)C(=O)NCN2c1ccccc1)c1ccc(F)cc1 reads mitochondrial oxygen consumption rate normalised (2 µM): 0.165 ± 0.47
CCCCOC(=O)c1ccccc1C(=O)OCCCC reads mitochondrial oxygen consumption rate normalised (2 µM): -0.381 ± 0.093

Additional entries follow:

Structure (SMILES)	mitochondrial oxygen consumption rate normalised (2 µM)	mitochondrial oxygen consumption rate normalised (10 µM)
CCC(=O)O[C@H]1CC[C@H]2[C@@H]3CCC4=CC(=O)CC[C@]4(C)[C@H]3CC[C@]12C	-0.966 ± 0.19	
Oc1ccc(Cl)cc1Cc1cc(Cl)ccc1O	1.71 ± 2.2	
Cl[C@H]1[C@H](Cl)[C@@H](Cl)[C@@H](Cl)[C@H](Cl)[C@H]1Cl	-0.465 ± 0.86	
CC(O)CN1CCN(CC(=O)[O-])CCN(CC(=O)[O-])CCN(CC(=O)[O-])CC1.[Gd+3] (stereo unspecified)	0.117 ± 0.9	
CCCC(C)(COC(N)=O)COC(=O)NC(C)C (stereo unspecified)	-0.256 ± 1.4	
COC(C)(C)CCC[C@H](C)C/C=C/C(C)=C/C(=O)OC(C)C	0.0675 ± 0.28	0.396 ± 0.11
C[N+]1(C)CCCC(OC(=O)C(O)(c2ccccc2)c2ccccc2)C1 (stereo unspecified)	-1.16 ± 0.28	
C#CC(C)(O)CC (stereo unspecified)	0.265 ± 1.8	
N[C@@H]1C[C@H]1c1ccccc1.N[C@H]1C[C@@H]1c1ccccc1	-0.756 ± 0.18	
CCOP(=S)(OCC)Oc1ccc2c(C)c(Cl)c(=O)oc2c1	0.72 ± 1.2	
CCOc1cc(C=O)ccc1O	0.328 ± 0.48	
C=C1C[C@@H]2[C@H](CC[C@]3(C)C(=O)CC[C@@H]23)[C@@]2(C)C=CC(=O)C=C12	-1.5 ± 1.2	
C=C1C[C@@H]2[C@H](CC[C@]3(C)C(=O)CC[C@@H]23)[C@@]2(C)C=CC(=O)C=C12 [Exemestane]	0.522 ± 0.39	
CCCCCCCCCCCCCCCC[n+]1ccccc1	-6.43 ± 0.34	
C=CCC1(C(C)CCC)C(=O)NC(=S)NC1=O (stereo unspecified)	-0.207 ± 0.7	
CCOP(=S)(OCC)Oc1nc(Cl)c(Cl)cc1Cl	-0.136 ± 0.082	
c1ccc2c(c1)sc1ccccc12	-0.378 ± 0.72	
O=P1(N(CCCl)CCCl)NCCCO1 (stereo unspecified)	-0.277 ± 1.6	
O=P1(N(CCCl)CCCl)NCCCO1 (stereo unspecified) [Cyclophosphamide]	1.12 ± 0.025	
CN1C(=O)CCS(=O)(=O)C1c1ccc(Cl)cc1 (stereo unspecified)	0.149 ± 0.66	
O=C(NC(O)C(Cl)(Cl)Cl)NC(O)C(Cl)(Cl)Cl (stereo unspecified)	0.351 ± 0.63	
CC(=O)NC1CCSC1=O (stereo unspecified)	-1.06 ± 0.04	0.219 ± 0.66
CNC(=O)Oc1ccccc1OC(C)C	-1 ± 0.054	
CNCC(O)c1ccc(O)cc1 (stereo unspecified)	-0.607 ± 0.15	
CC(C)C[C@H]1C(=O)N2CCC[C@H]2[C@]2(O)O[C@](NC(=O)[C@@H]3C=C4c5cccc6[nH]c(Br)c(c56)C[C@H]4N(C)C3)(C(C)C)C(=O)N12	-0.175 ± 0.089	
